Among the data in US20140056878A1 are binding values, retold here.

Protein sequences, listed by entry. Tags and fused reporters are not part of them. Lines headed by an entry give the natural chain unless they say otherwise; changes in a name come on top. Residues count along the entry.
UniProt P10643, residues 23-843: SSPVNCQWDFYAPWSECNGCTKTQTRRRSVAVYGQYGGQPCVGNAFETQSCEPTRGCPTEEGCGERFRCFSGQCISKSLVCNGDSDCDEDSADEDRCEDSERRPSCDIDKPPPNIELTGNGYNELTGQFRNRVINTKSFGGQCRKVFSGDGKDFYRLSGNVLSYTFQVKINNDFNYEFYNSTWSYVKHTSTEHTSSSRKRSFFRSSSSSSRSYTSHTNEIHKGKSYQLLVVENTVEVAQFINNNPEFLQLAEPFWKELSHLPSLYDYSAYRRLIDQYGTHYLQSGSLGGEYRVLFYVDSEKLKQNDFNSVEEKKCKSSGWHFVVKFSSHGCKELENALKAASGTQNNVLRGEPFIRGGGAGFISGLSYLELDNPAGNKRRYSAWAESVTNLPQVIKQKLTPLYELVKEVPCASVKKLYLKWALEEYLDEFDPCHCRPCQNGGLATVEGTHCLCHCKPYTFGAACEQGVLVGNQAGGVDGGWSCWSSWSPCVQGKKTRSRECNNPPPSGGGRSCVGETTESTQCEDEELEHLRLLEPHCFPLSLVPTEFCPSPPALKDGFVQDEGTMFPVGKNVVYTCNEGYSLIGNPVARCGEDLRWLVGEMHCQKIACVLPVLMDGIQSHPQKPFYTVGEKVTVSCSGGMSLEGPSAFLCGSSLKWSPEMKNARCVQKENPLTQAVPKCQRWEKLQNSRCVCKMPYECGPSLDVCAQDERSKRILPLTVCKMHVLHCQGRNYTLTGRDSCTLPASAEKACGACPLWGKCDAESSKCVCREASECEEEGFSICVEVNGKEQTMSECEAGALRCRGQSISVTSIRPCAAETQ
UniProt P01031: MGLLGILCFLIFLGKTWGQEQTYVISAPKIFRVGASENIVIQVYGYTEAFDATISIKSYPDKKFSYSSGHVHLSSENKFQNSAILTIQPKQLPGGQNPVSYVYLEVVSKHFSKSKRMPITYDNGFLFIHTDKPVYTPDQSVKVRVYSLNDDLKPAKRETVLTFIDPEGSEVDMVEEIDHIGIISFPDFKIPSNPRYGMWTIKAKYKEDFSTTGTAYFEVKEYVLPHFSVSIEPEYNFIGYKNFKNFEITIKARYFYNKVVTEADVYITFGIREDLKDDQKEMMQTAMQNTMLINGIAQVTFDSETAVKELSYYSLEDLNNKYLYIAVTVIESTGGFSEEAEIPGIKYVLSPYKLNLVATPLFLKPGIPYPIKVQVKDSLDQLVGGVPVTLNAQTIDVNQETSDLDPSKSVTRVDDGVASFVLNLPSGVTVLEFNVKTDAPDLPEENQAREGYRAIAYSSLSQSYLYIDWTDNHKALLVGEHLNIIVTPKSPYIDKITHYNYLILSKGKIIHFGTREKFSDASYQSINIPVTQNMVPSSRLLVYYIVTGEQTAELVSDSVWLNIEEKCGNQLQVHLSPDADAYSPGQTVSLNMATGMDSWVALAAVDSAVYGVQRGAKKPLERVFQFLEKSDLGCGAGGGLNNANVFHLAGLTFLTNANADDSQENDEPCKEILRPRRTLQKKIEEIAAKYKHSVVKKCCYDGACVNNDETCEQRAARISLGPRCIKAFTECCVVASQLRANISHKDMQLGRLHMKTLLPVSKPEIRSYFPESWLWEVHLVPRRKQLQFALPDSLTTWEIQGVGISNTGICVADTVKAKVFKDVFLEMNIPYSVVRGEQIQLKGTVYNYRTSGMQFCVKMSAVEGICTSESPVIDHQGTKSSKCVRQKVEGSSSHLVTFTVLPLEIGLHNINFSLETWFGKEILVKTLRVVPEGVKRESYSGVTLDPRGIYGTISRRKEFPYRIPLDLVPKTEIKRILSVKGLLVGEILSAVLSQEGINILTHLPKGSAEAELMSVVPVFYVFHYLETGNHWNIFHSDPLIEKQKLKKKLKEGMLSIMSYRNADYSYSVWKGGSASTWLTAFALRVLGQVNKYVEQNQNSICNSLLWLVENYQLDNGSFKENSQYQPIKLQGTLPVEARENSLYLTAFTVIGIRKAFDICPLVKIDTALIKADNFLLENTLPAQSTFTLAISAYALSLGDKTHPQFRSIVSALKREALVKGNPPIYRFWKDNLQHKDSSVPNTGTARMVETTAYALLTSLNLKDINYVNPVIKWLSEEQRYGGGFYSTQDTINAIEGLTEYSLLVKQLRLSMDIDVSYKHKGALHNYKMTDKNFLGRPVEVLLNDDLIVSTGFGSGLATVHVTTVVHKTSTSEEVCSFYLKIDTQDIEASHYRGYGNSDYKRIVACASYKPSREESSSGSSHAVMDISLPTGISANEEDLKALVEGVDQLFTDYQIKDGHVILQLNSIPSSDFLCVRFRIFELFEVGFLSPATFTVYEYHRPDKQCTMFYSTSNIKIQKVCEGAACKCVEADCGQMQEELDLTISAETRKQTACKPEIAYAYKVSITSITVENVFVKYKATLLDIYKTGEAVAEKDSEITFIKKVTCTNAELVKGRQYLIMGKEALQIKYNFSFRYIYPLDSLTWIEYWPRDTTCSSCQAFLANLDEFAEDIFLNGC

Results are given in words; binding and its absence hold for the method and conditions named. Some results given as binding are weak or reduced against the parent protein; the word gives no strength.

The test concerns the target Complement protein C7 (UniProt P10643). Nature of the test: BIACORE blocking assay: C5-C345C mixed with 100 nM C5b6, then flowed over C7 captured by an anti-C7 antibody; competitor C5b6.

Regarding “C5-C345C (from UniProt P01031 1530-1676)”, the binding result is “binds”.
